From US20080161187A1 (priority 2005, published 2008)
Some entries share one result that the patent states for a list of compounds.

System: Mediterranean fruitfly (Ceratitis capitata)
Test: Activity against Mediterranean fruitfly, eggs in microtiterplates
Assay type: in vivo
Settings: 2500 ppm, eggs sprayed, 6 days; untreated controls 0% mortality

CN(Cc1ccncc1F)S(=O)(=O)c1ccc(-c2ccc(Cl)cc2Cl)cc1 [A-484 of Table 25]
mortality: over 75%
